These are yes or no findings as the source states them, for the method shown. In cells and extracts the contact can be indirect. Binding can be weak; no strength is given. For part of these data: Tags and fused reporters may be left off the sequences shown.
T1: MISC-1::GFP (C. elegans) (UniProt P90992)
T1 sequence: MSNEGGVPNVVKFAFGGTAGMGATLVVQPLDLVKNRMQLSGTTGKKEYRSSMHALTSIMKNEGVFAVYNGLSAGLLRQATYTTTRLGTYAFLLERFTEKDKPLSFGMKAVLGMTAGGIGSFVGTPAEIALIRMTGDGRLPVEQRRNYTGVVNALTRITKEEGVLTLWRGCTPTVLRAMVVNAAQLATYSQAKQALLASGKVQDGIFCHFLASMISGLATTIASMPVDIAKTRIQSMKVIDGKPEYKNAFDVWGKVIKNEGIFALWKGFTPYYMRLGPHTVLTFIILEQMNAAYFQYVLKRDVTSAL

T2: MISC-1 (Mitochondrial Solute Carrier) (C. elegans (endogenous in N2)) (UniProt P90992)
T2 sequence: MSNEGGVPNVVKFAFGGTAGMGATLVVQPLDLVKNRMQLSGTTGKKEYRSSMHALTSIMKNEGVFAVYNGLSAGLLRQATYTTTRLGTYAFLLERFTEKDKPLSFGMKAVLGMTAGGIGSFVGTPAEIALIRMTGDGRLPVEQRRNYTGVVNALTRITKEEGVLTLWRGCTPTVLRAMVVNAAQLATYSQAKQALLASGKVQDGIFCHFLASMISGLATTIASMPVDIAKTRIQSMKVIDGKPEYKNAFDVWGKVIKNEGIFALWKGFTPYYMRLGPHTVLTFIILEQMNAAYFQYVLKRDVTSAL


Assays:
MISC-1::GFP (C. elegans) = target: T1, MISC-1::GFP (C. elegans); assay: co-IP; lysates of mixed stage C. elegans (wild type N2 and the MISC-1::GFP transgenic line) in co-immunoprecipitation buffer, several combinations of antibodies, protocol as for mammalian cells, Western blot
[1] = target: T2, MISC-1 (Mitochondrial Solute Carrier) (C. elegans (endogenous in N2)); assay: as above
[2] = target: Adenine Nucleotide Translocase (ANT) (human (endogenous in HEK293)); assay: co-IP; antibody against ANT added to sonicated HEK293 lysate (25 mM TRIS pH 7.4, 100 mM NaCl, 1 mM EDTA, 0.5% NP-40, 1% sodium deoxycholate), overnight at 4°C, protein G-sepharose, Western blot

| binding (MISC-1::GFP (C. elegans)) | binding [1] | binding [2] | Molecule |
| --- | --- | --- | --- |
| binds | binds | – | ANT (C. elegans) |
| – | – | binds | 2-oxoglutarate carrier (OGC) (protein, UniProt Q02978 1-314) MAATASAGAGGIDGKPRTSPKSVKFLFGGLAGMGATVFVQPLDLVKNRMQLSGEGAKTREYKTSFHALTSILKAEGLRGIYTGLSAGLLRQATYTTTRLGIYTVLFERLTGADGTPPGFLLKAVIGMTAGATGAFVGTPAEVALIRMTADGRLPADQRRGYKNVFNALIRITREEGVLTLWRGCIPTMARAVVVNAAQLASYSQSKQFLLDSGYFSDNILCHFCASMISGLVTTAASMPVDIAKTRIQNMRMIDGKPEYKNGLDVLFKVVRYEGFFSLWKGFTPYYARLGPHTVLTFIFLEQMNKAYKRLFLSG |
